Measurements reported in PubChem BioAssay AID1508597 (Cure First, 2020)
Screen: 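Genes whose silencing sensitises or protects ovarian cancer cells against rucaparib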 (primary screen). System: human ovarian carcinoma lines grown from tumours: OCI-P5x (papillary serous) and OCI-C5x (clear cell). Reagents: siRNA pool against human genes, 1.25 pmol siRNA per well. Duration: 72 h or 96 h, depending on the cell culture. Conditions: rucaparib 20 µM (about IC30) or vehicle, present until read-out. Detection: 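ATP luminescence measured at 72 or 96 h according to the culture, then normalised and expressed as percent viability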. Scale: viability, normalised: higher = more viable cells remaining. Active means: 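a well counts as a hit if its normalised viability is under 80 percent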. Meaning of the calls: active = viability under 80%; inactive = viability 80% or more.
In all, the deposit lists about 2,100 reagents; shown is an unselected part. 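Calls flag viability under 80% in either arm, not effects specific to rucaparib; the reference for percent is not stated.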 Not given: the 100% reference.

{"gene symbol": "APOA2", "rucaparib or vehicle": "Rucaparib", "cell line": "OCI-C5x (clear cell)", "technical replicate": "1", "viability, normalised (%)": 34.9, "outcome": "active"}
{"gene symbol": "APOA2", "rucaparib or vehicle": "Rucaparib", "cell line": "OCI-C5x (clear cell)", "technical replicate": "2", "viability, normalised (%)": 34.1, "outcome": "active"}
{"gene symbol": "APOA2", "rucaparib or vehicle": "Rucaparib", "cell line": "OCI-C5x (clear cell)", "technical replicate": "3", "viability, normalised (%)": 39.8, "outcome": "active"}
{"gene symbol": "APOA2", "rucaparib or vehicle": "Rucaparib", "cell line": "OCI-P5x (serous)", "technical replicate": "1", "viability, normalised (%)": 41.9, "outcome": "active"}
{"gene symbol": "APOA2", "rucaparib or vehicle": "Rucaparib", "cell line": "OCI-P5x (serous)", "technical replicate": "2", "viability, normalised (%)": 61.1, "outcome": "active"}
{"gene symbol": "APOA2", "rucaparib or vehicle": "Rucaparib", "cell line": "OCI-P5x (serous)", "technical replicate": "3", "viability, normalised (%)": 40.6, "outcome": "active"}
{"gene symbol": "APOA2", "rucaparib or vehicle": "Vehicle", "cell line": "OCI-C5x (clear cell)", "technical replicate": "1", "viability, normalised (%)": 15.5, "outcome": "active"}
{"gene symbol": "APOA2", "rucaparib or vehicle": "Vehicle", "cell line": "OCI-C5x (clear cell)", "technical replicate": "2", "viability, normalised (%)": 17.4, "outcome": "active"}
{"gene symbol": "APOA2", "rucaparib or vehicle": "Vehicle", "cell line": "OCI-C5x (clear cell)", "technical replicate": "3", "viability, normalised (%)": 14.9, "outcome": "active"}
{"gene symbol": "APOA2", "rucaparib or vehicle": "Vehicle", "cell line": "OCI-P5x (serous)", "technical replicate": "1", "viability, normalised (%)": 29.2, "outcome": "active"}
{"gene symbol": "APOA2", "rucaparib or vehicle": "Vehicle", "cell line": "OCI-P5x (serous)", "technical replicate": "2", "viability, normalised (%)": 27.3, "outcome": "active"}
{"gene symbol": "APOA2", "rucaparib or vehicle": "Vehicle", "cell line": "OCI-P5x (serous)", "technical replicate": "3", "viability, normalised (%)": 43.7, "outcome": "active"}
{"gene symbol": "MAST3", "rucaparib or vehicle": "Rucaparib", "cell line": "OCI-C5x (clear cell)", "technical replicate": "1", "viability, normalised (%)": 46.3, "outcome": "active"}
{"gene symbol": "MAST3", "rucaparib or vehicle": "Rucaparib", "cell line": "OCI-C5x (clear cell)", "technical replicate": "2", "viability, normalised (%)": 47.7, "outcome": "active"}
{"gene symbol": "MAST3", "rucaparib or vehicle": "Rucaparib", "cell line": "OCI-C5x (clear cell)", "technical replicate": "3", "viability, normalised (%)": 54.1, "outcome": "active"}
{"gene symbol": "MAST3", "rucaparib or vehicle": "Rucaparib", "cell line": "OCI-P5x (serous)", "technical replicate": "1", "viability, normalised (%)": 67.2, "outcome": "active"}
{"gene symbol": "MAST3", "rucaparib or vehicle": "Rucaparib", "cell line": "OCI-P5x (serous)", "technical replicate": "2", "viability, normalised (%)": 79.9, "outcome": "active"}
{"gene symbol": "MAST3", "rucaparib or vehicle": "Rucaparib", "cell line": "OCI-P5x (serous)", "technical replicate": "3", "viability, normalised (%)": 79.3, "outcome": "active"}
{"gene symbol": "MAST3", "rucaparib or vehicle": "Vehicle", "cell line": "OCI-C5x (clear cell)", "technical replicate": "1", "viability, normalised (%)": 57.3, "outcome": "active"}
{"gene symbol": "MAST3", "rucaparib or vehicle": "Vehicle", "cell line": "OCI-C5x (clear cell)", "technical replicate": "2", "viability, normalised (%)": 54.1, "outcome": "active"}
{"gene symbol": "MAST3", "rucaparib or vehicle": "Vehicle", "cell line": "OCI-C5x (clear cell)", "technical replicate": "3", "viability, normalised (%)": 63.7, "outcome": "active"}
{"gene symbol": "MAST3", "rucaparib or vehicle": "Vehicle", "cell line": "OCI-P5x (serous)", "technical replicate": "1", "viability, normalised (%)": 71.4, "outcome": "active"}
{"gene symbol": "MAST3", "rucaparib or vehicle": "Vehicle", "cell line": "OCI-P5x (serous)", "technical replicate": "2", "viability, normalised (%)": 75.8, "outcome": "active"}
{"gene symbol": "MAST3", "rucaparib or vehicle": "Vehicle", "cell line": "OCI-P5x (serous)", "technical replicate": "3", "viability, normalised (%)": 89.3, "outcome": "inactive"}
{"gene symbol": "NUDT1", "rucaparib or vehicle": "Rucaparib", "cell line": "OCI-C5x (clear cell)", "technical replicate": "1", "viability, normalised (%)": 62.6, "outcome": "active"}
{"gene symbol": "NUDT1", "rucaparib or vehicle": "Rucaparib", "cell line": "OCI-C5x (clear cell)", "technical replicate": "2", "viability, normalised (%)": 70.8, "outcome": "active"}
{"gene symbol": "NUDT1", "rucaparib or vehicle": "Rucaparib", "cell line": "OCI-C5x (clear cell)", "technical replicate": "3", "viability, normalised (%)": 56.9, "outcome": "active"}
{"gene symbol": "NUDT1", "rucaparib or vehicle": "Rucaparib", "cell line": "OCI-P5x (serous)", "technical replicate": "1", "viability, normalised (%)": 54.8, "outcome": "active"}
{"gene symbol": "NUDT1", "rucaparib or vehicle": "Rucaparib", "cell line": "OCI-P5x (serous)", "technical replicate": "2", "viability, normalised (%)": 74.7, "outcome": "active"}
{"gene symbol": "NUDT1", "rucaparib or vehicle": "Rucaparib", "cell line": "OCI-P5x (serous)", "technical replicate": "3", "viability, normalised (%)": 50.2, "outcome": "active"}
{"gene symbol": "NUDT1", "rucaparib or vehicle": "Vehicle", "cell line": "OCI-C5x (clear cell)", "technical replicate": "1", "viability, normalised (%)": 46.6, "outcome": "active"}
{"gene symbol": "NUDT1", "rucaparib or vehicle": "Vehicle", "cell line": "OCI-C5x (clear cell)", "technical replicate": "2", "viability, normalised (%)": 40.1, "outcome": "active"}
{"gene symbol": "NUDT1", "rucaparib or vehicle": "Vehicle", "cell line": "OCI-C5x (clear cell)", "technical replicate": "3", "viability, normalised (%)": 44.2, "outcome": "active"}
{"gene symbol": "NUDT1", "rucaparib or vehicle": "Vehicle", "cell line": "OCI-P5x (serous)", "technical replicate": "1", "viability, normalised (%)": 51.9, "outcome": "active"}
{"gene symbol": "NUDT1", "rucaparib or vehicle": "Vehicle", "cell line": "OCI-P5x (serous)", "technical replicate": "2", "viability, normalised (%)": 61.6, "outcome": "active"}
{"gene symbol": "NUDT1", "rucaparib or vehicle": "Vehicle", "cell line": "OCI-P5x (serous)", "technical replicate": "3", "viability, normalised (%)": 65, "outcome": "active"}
{"gene symbol": "ERCC4", "rucaparib or vehicle": "Rucaparib", "cell line": "OCI-C5x (clear cell)", "technical replicate": "1", "viability, normalised (%)": 55.3, "outcome": "active"}
{"gene symbol": "ERCC4", "rucaparib or vehicle": "Rucaparib", "cell line": "OCI-C5x (clear cell)", "technical replicate": "2", "viability, normalised (%)": 59, "outcome": "active"}
{"gene symbol": "ERCC4", "rucaparib or vehicle": "Rucaparib", "cell line": "OCI-C5x (clear cell)", "technical replicate": "3", "viability, normalised (%)": 53.3, "outcome": "active"}
{"gene symbol": "ERCC4", "rucaparib or vehicle": "Rucaparib", "cell line": "OCI-P5x (serous)", "technical replicate": "1", "viability, normalised (%)": 94.3, "outcome": "inactive"}
{"gene symbol": "ERCC4", "rucaparib or vehicle": "Rucaparib", "cell line": "OCI-P5x (serous)", "technical replicate": "2", "viability, normalised (%)": 90.5, "outcome": "inactive"}
{"gene symbol": "ERCC4", "rucaparib or vehicle": "Rucaparib", "cell line": "OCI-P5x (serous)", "technical replicate": "3", "viability, normalised (%)": 53.7, "outcome": "active"}
{"gene symbol": "ERCC4", "rucaparib or vehicle": "Vehicle", "cell line": "OCI-C5x (clear cell)", "technical replicate": "1", "viability, normalised (%)": 54.2, "outcome": "active"}
{"gene symbol": "ERCC4", "rucaparib or vehicle": "Vehicle", "cell line": "OCI-C5x (clear cell)", "technical replicate": "2", "viability, normalised (%)": 54.8, "outcome": "active"}
{"gene symbol": "ERCC4", "rucaparib or vehicle": "Vehicle", "cell line": "OCI-C5x (clear cell)", "technical replicate": "3", "viability, normalised (%)": 49.4, "outcome": "active"}
{"gene symbol": "ERCC4", "rucaparib or vehicle": "Vehicle", "cell line": "OCI-P5x (serous)", "technical replicate": "1", "viability, normalised (%)": 69.8, "outcome": "active"}
{"gene symbol": "ERCC4", "rucaparib or vehicle": "Vehicle", "cell line": "OCI-P5x (serous)", "technical replicate": "2", "viability, normalised (%)": 74.5, "outcome": "active"}
{"gene symbol": "ERCC4", "rucaparib or vehicle": "Vehicle", "cell line": "OCI-P5x (serous)", "technical replicate": "3", "viability, normalised (%)": 69.5, "outcome": "active"}
